Reference: patent publication US20170260247 (published 2017)

Experiment: general procedure: Fmoc solid-phase peptide synthesis; MBHA resin (substitution about 0.6 mmol/g); DIC/HOBt
Conditions: whole synthesis, acetate; for crude purity (method not given) / final HPLC purity: HPLC (analysing the liquid phase); for crude purity (method not given) / final HPLC purity / isolated yield: scale of the general procedure 0.05 mol; for isolated yield: total yield

Ac-D-Nal-D-Cpa-D-Pal-Ser-Aph(Hor)-D-Aph(Cbm)-Leu-Lys(iPr)-Pro-D-Ala-NH2
crude purity (method not given) (run 1): 86.7%
final HPLC purity (run 1): 99.5%
crude purity (method not given) (run 2): 84.0%
final HPLC purity (run 2): 99.7%
isolated mass (run 1): 49.3 g
isolated mass (run 2): 47.5 g
isolated yield (run 1): 60.4%
isolated yield (run 2): 58.2%
